# Source: the supplement of paper PMC8728848
# The list shows a part of the results.
# B1: MIC2 (Toxoplasma gondii), S8F9G8 (protein)
# chain: MRLQREAVFGLMFACGMWMWPSEVAGGGWSIVDALRKRYDTSRGGDANGVDTSGVEDVIQSESAIGAAEGCTNQLDICFLIDSSGSIGIQNFRLVKQFLHTFLMVLPIGPEEVNNAVVTYSTDVHLQWDLQSPNAVDKQLAAHAVLDMPYKKGSTNTSDGLKACKQILFTGSRPGREHVPKLVIGMTDGESDSDFRTVRAAKEIRELGGIVTVLAVGHYVKHSECRSMCGCSGTSDDDSPCPLYLRADWGQLATAIKPMLKEVCKTLPQDAICSDWSAWSPCSVSCGDGSQIRTRTEVSAPQPGTPTCPDCPAPMGRTCVEQGGLEEIRECSAGVCAVDAGCGVWGEWSAWSASCGNATRKRERTRYNDPPPQGAGRRCENQDPPVLQEQTEEATLAPCITIPPTPPEWAAWSDCTVTCGGGNRHRVRNALPPGLGSQNGESDESLVSKLWPGTDLRQEEACNTSPCPINATCGQFEEWSTCSVSCGGGLKTRSRNPWNEDQQHGGLSCEQQHPGGRTETITCNPQACPVDERPGEWAEWGECSVTCGDGVRERRRGKSLVEAKFGGRTIDQQNEALPEDLKIKNVEYEPCSYPACGASCTYVWSDWNKCVCPMGYQARHAAVKFDYRNKPCDLPTFETKACSCGETNPVPSEGTTPGAPGATGPEQPNQRPLPEGSDENETPTNEEGEQSKKESGSGIAGAIAGGVIGGLILLGAAGGASYHYYLSSSVGSPSAEIEYEADDGATKVVMEEEKETLVPVDDDSDMWME
# Assays:
# Test in all cases: glycan array binding signal (z-score within array); higher = stronger binding
# Settings in all cases: glycan notation: IUPAC condensed, linker removed
# [1] = biological target: GlcNAc6S(b1-3)Gal(b1-4)GlcNAc
# Outline: (§1)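 Columns mapping to the same glycan were averaged after glycan names were converted to IUPAC-condensed notation. The data come from 3228 arrays in the Consortium for Functional Glycomics database, limited to those with an available protein sequence. Binding is reported as a within-array Z-score averaged across arrays of one protein sequence and across linkers.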
# Kdn(a2-3)Gal(b1-3)GalNAc = biological target: Kdn(a2-3)Gal(b1-3)GalNAc
# Outline: as §1
# Kdn(a2-3)Gal(b1-3)GlcNAc = biological target: Kdn(a2-3)Gal(b1-3)GlcNAc
# Outline: as §1
# Kdn(a2-3)Gal(b1-4)Glc = biological target: Kdn(a2-3)Gal(b1-4)Glc
# Outline: as §1
# Kdn(a2-3)Gal(b1-4)GlcNAc = biological target: Kdn(a2-3)Gal(b1-4)GlcNAc
# Outline: as §1
# [2] = biological target: Kdn(a2-3)Gal(b1-4)[Fuc(a1-3)]GlcNAc
# Outline: as §1
# Kdn(a2-6)Gal(b1-4)GlcNAc = biological target: Kdn(a2-6)Gal(b1-4)GlcNAc
# Outline: as §1
# [3] = biological target: Man(a1-2)Man(a1-2)Man(a1-3)Man
# Outline: as §1
# [4] = biological target: Man(a1-2)Man(a1-2)Man(a1-6)[Man(a1-3)]Man
# Outline: as §1
# Man(a1-2)Man(a1-3)Man = biological target: Man(a1-2)Man(a1-3)Man
# Outline: as §1
# [5] = biological target: Man(a1-2)Man(a1-3)[Man(a1-2)Man(a1-6)]Man
# Outline: as §1
# [6] = biological target: Man(a1-2)Man(a1-3)[Man(a1-2)Man(a1-6)]Man(a1-6)[Man(a1-2)Man(a1-2)Man(a1-3)]Man
# Outline: as §1
# [7] = biological target: Man(a1-2)Man(a1-3)[Man(a1-2)Man(a1-6)]Man(a1-6)[Man(a1-2)Man(a1-2)Man(a1-3)]Man(b1-4)GlcNAc(b1-4)GlcNAc
# Outline: as §1
# [8] = biological target: Man(a1-2)Man(a1-3)[Man(a1-6)]Man(a1-6)[Man(a1-2)Man(a1-3)]Man(b1-4)GlcNAc(b1-4)GlcNAc
# Outline: as §1
# [9] = biological target: Man(a1-2)Man(a1-6)[Man(a1-3)]Man(a1-6)[Man(a1-2)Man(a1-2)Man(a1-3)]Man
# Outline: as §1
# [10] = biological target: Man(a1-2)Man(a1-6)[Man(a1-3)]Man(a1-6)[Man(a1-2)Man(a1-2)Man(a1-3)]Man(b1-4)GlcNAc(b1-4)GlcNAc
# Outline: as §1
# Man(a1-3)[Man(a1-6)]Man = biological target: Man(a1-3)[Man(a1-6)]Man
# Outline: as §1
# [11] = biological target: Man(a1-3)[Man(a1-6)]Man(a1-6)[Man(a1-2)Man(a1-3)]Man(b1-4)GlcNAc(b1-4)GlcNAc
# Outline: as §1
# [12] = biological target: Man(a1-3)[Man(a1-6)]Man(a1-6)[Man(a1-3)]Man
# Outline: as §1
# [13] = biological target: Man(a1-3)[Man(a1-6)]Man(a1-6)[Man(a1-3)]Man(b1-4)GlcNAc(b1-4)GlcNAc
# Outline: as §1
# [14] = biological target: Man(a1-3)[Man(a1-6)]Man(b1-4)GlcNAc(b1-4)GlcNAc
# Outline: as §1
# Man(a1-6)Man = biological target: Man(a1-6)Man
# Outline: as §1
# Man(b1-4)GlcNAc = biological target: Man(b1-4)GlcNAc
# Outline: as §1
# Neu5Ac(a2-3)Gal = biological target: Neu5Ac(a2-3)Gal
# Outline: as §1
# [15] = biological target: Neu5Ac(a2-3)Gal(b1-3)GalNAc
# Outline: as §1
# [16] = biological target: Neu5Ac(a2-3)Gal(b1-3)GalNAc(b1-3)Gal(a1-4)Gal(b1-4)Glc
# Outline: as §1
# [17] = biological target: Neu5Ac(a2-3)Gal(b1-3)GalNAc(b1-4)[Neu5Ac(a2-3)]Gal(b1-4)Glc
# Outline: as §1
# [18] = biological target: Neu5Ac(a2-3)Gal(b1-3)GalNAc6S
# Outline: as §1
# [19] = biological target: Neu5Ac(a2-3)Gal(b1-3)GlcNAc
# Outline: as §1
# [20] = biological target: Neu5Ac(a2-3)Gal(b1-3)GlcNAc(b1-2)Man(a1-3)[Neu5Ac(a2-3)Gal(b1-3)GlcNAc(b1-2)Man(a1-6)]Man(b1-4)GlcNAc(b1-4)GlcNAc
# Outline: as §1
binder,measurement,setting,value
B1,glycan array binding signal (z-score),[1],0.158
same,glycan array binding signal (z-score),Kdn(a2-3)Gal(b1-3)GalNAc,-0.355
same,glycan array binding signal (z-score),Kdn(a2-3)Gal(b1-3)GlcNAc,-0.014
same,glycan array binding signal (z-score),Kdn(a2-3)Gal(b1-4)Glc,-0.475
same,glycan array binding signal (z-score),Kdn(a2-3)Gal(b1-4)GlcNAc,0.304
same,glycan array binding signal (z-score),[2],2.02
same,glycan array binding signal (z-score),Kdn(a2-6)Gal(b1-4)GlcNAc,-0.171
same,glycan array binding signal (z-score),[3],-0.235
same,glycan array binding signal (z-score),[4],-0.891
same,glycan array binding signal (z-score),Man(a1-2)Man(a1-3)Man,-0.444
same,glycan array binding signal (z-score),[5],-0.278
same,glycan array binding signal (z-score),[6],-0.307
same,glycan array binding signal (z-score),[7],0.876
same,glycan array binding signal (z-score),[8],-0.97
same,glycan array binding signal (z-score),[9],-0.016
same,glycan array binding signal (z-score),[10],-0.803
same,glycan array binding signal (z-score),Man(a1-3)[Man(a1-6)]Man,-0.69
same,glycan array binding signal (z-score),[11],0.527
same,glycan array binding signal (z-score),[12],-0.461
same,glycan array binding signal (z-score),[13],0.61
same,glycan array binding signal (z-score),[14],-0.561
same,glycan array binding signal (z-score),Man(a1-6)Man,-0.81
same,glycan array binding signal (z-score),Man(b1-4)GlcNAc,0.368
same,glycan array binding signal (z-score),Neu5Ac(a2-3)Gal,0.102
same,glycan array binding signal (z-score),[15],-0.321
same,glycan array binding signal (z-score),[16],0.008
same,glycan array binding signal (z-score),[17],0.556
same,glycan array binding signal (z-score),[18],-0.446
same,glycan array binding signal (z-score),[19],-0.254
same,glycan array binding signal (z-score),[20],-1.07

# A different layout for some results above:
binder | measurement | setting | value
B1 | glycan array binding signal (z-score) | [13] | 0.61
same | glycan array binding signal (z-score) | [17] | 0.556
